The text below walks through data of PMC12983349.

Sequences of proteins named here, by UniProt entry; tags and fusion partners are left off.
UniProt Q64430: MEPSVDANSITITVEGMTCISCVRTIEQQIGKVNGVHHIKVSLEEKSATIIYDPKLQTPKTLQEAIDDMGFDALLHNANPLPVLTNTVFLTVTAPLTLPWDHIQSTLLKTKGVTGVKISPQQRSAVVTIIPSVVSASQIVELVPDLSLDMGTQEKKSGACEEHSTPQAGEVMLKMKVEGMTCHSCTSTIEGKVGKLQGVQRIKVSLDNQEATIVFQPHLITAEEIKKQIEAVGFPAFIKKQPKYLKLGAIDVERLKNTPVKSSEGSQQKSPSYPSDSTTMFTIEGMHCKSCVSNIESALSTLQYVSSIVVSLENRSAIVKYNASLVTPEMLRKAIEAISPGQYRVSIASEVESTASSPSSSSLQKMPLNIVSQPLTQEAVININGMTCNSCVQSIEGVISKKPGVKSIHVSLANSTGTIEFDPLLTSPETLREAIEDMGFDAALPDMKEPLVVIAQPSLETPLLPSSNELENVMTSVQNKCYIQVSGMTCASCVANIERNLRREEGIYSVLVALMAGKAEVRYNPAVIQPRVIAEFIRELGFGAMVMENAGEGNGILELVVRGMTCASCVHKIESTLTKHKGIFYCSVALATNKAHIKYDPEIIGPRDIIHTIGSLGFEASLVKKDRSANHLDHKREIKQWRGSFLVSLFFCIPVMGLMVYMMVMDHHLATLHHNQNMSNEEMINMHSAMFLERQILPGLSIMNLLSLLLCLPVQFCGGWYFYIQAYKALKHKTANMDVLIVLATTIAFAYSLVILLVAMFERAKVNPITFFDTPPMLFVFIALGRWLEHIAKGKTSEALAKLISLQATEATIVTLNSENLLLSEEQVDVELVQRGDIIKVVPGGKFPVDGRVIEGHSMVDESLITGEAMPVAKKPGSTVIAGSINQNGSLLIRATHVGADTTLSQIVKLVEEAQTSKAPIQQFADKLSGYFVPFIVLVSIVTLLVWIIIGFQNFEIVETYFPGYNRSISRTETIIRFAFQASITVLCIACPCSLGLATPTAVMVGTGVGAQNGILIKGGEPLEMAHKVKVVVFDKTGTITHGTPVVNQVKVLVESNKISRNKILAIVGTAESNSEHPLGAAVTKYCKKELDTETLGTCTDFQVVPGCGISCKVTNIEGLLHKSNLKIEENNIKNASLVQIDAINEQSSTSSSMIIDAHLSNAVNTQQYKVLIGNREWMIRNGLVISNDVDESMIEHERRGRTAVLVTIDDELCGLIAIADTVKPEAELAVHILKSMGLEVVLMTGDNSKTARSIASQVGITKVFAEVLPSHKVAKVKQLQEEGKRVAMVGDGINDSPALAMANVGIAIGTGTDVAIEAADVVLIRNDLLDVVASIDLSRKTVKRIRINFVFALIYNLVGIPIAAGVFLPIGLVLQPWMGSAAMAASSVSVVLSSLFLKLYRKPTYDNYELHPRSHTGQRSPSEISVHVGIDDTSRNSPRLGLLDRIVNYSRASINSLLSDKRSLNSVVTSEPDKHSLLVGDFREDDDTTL
UniProt Q91WJ8: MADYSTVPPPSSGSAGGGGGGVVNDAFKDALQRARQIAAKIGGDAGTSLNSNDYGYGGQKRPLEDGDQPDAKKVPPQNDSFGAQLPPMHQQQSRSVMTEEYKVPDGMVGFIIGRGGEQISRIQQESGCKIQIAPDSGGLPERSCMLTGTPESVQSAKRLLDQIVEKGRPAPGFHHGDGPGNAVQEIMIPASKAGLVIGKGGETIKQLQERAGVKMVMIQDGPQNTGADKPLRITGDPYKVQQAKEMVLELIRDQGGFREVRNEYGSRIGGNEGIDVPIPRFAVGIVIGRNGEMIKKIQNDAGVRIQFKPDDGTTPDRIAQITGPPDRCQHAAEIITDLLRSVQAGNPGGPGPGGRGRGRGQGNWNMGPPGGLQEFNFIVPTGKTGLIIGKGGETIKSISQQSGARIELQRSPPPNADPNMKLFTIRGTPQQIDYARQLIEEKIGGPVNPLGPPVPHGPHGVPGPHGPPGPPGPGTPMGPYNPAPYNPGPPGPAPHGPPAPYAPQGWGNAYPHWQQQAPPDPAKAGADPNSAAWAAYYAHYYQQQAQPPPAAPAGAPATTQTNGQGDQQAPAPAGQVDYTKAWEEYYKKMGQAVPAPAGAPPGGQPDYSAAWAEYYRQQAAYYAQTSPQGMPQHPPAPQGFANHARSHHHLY
UniProt Q99020: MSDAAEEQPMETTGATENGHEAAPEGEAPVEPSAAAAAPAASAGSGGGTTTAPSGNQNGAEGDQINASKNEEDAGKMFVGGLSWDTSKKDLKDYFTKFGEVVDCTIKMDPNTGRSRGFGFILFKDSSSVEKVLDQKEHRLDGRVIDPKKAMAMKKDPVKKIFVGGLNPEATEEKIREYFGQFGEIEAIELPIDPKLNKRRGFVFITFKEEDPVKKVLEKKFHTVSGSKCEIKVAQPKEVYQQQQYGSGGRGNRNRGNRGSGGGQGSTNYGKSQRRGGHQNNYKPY
UniProt Q91VH2: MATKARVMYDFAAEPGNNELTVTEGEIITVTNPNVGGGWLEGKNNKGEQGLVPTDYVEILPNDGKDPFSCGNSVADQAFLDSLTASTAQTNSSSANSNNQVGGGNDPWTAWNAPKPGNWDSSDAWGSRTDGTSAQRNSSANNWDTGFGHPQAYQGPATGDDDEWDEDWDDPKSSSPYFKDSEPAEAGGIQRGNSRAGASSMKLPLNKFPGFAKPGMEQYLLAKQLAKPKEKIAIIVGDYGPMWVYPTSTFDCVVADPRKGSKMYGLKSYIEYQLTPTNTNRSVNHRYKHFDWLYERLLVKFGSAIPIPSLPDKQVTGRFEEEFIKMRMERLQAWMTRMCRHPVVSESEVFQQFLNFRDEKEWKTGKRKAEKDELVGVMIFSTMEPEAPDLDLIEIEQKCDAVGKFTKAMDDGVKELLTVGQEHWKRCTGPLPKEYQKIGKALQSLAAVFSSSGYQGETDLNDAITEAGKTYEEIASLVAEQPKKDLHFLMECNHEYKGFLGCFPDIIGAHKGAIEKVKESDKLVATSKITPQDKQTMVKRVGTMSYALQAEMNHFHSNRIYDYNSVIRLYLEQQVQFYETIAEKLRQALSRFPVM

The labels stand for the following.
T1: APEX2-ATOX1 fusion construct (3x Flag-APEX2-3x Myc-human ATOX1) (human) (UniProt O00244)
T1 sequence: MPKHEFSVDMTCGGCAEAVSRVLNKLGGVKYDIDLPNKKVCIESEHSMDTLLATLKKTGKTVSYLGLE

B1: cysteine rich intestinal protein 2 (CRIP2) (protein, UniProt Q9DCT8 1-208)
chain: MASKCPKCDKTVYFAEKVSSLGKDWHKFCLKCERCNKTLTPGGHAEHDGKPFCHKPCYATLFGPKGVNIGGAGSYIYEKPQTEAPQVTGPIEVPVVRTEERKTSGPPKGPSKASSVTTFTGEPNMCPRCNKRVYFAEKVTSLGKDWHRPCLRCERCSKTLTPGGHAEHDGQPYCHKPCYGILFGPKGVNTGAVGSYIYDKDPEGTVQP
B2: SCAMP3 (protein, UniProt O35609 1-349)
chain: MAQSRDTGNPFPDSGELDNPFQDPAVIQHRPSQQYATLDVYNPFENREPPPAYEPPAPAPAPLPPPSAPSVQSSRKLSPTEPRNYGSYSTQASAAAATAELLKKQEELNRKAEELDRRERELQHVALGGAGTRQNNWPPLPSFCPVKPCFFQDISMEIPQEFQKTVSTMYYLWMCSTLALLLNFFACLARFCVDTGSGSGFGLSMLWLLLFTPCSFVCWYRPMYKAFRSDSSFNFFVFFFIFFVQDVFFVLQAIGIPGWGFSGWVTALVVVGSKPAVAVLMLLVALLFTGIAVLGIVMLKRIHSLYRQTGASFQKAQQEFAAGVFSNPAVRTAAANAAAGAAENAFRAP
B3: transforming growth factor beta regulator 1 (TBRG1) (protein, UniProt Q3UB74 1-406)
chain: MSVLSGLASEPRTPLSSKARMKRLPRKSQNEKYRLKYLRLRRAAKATVFENASICDEIARLEEKFLKAKEERRYLLKKLLQIHALTEGEPQAAAPSHSSSLPLPYGVTSSVGTMQGAGPSTGAEEPFAKKSKKEKKEKGKENSKLEVLKKTSKKKKMEGGARKLVRPIALDPSGQPVFPIGLGGLTVYSLGEIITNRPGFHDENAIYPVGYCSTRVYASMKCPDQKCLYTCQIKDGGVQPQFEIVPEDDPQNTIVGSSADACYEELLRAISATTGKLMPNPLSCGADFFGFSHPTIHNLIQSCPEAQNCVNYQWVKFDACKPRKGQLSQELPENDATMSLEAFQTQTFDDDHDDSILPGSLDLPELQHEAFVSSYQPEFLTHEPLVDTDLQHLKSPSQCSPIQSSD
B4: SYNCRIP/HNRNPQ (protein, UniProt Q7TMK9 1-623)
chain: MATEHVNGNGTEEPMDTTSAVIHSENFQTLLDAGLPQKVAEKLDEIYVAGLVAHSDLDERAIEALKEFNEDGALAVLQQFKDSDLSHVQNKSAFLCGVMKTYRQREKQGTKVADSSKGPDEAKIKALLERTGYTLDVTTGQRKYGGPPPDSVYSGQQPSVGTEIFVGKIPRDLFEDELVPLFEKAGPIWDLRLMMDPLTGLNRGYAFVTFCTKEAAQEAVKLYNNHEIRSGKHIGVCISVANNRLFVGSIPKSKTKEQILEEFSKVTEGLTDVILYHQPDDKKKNRGFCFLEYEDHKTAAQARRRLMSGKVKVWGNVGTVEWADPIEDPDPEVMAKVKVLFVRNLANTVTEEILEKSFSQFGKLERVKKLKDYAFIHFDERDGAVKAMEEMNGKDLEGENIEIVFAKPPDQKRKERKAQRQAAKNQMYDDYYYYGPPHMPPPTRGRGRGGRGGYGYPPDYYGYEDYYDYYGYDYHNYRGGYEDPYYGYEDFQVGARGRGGRGARGAAPSRGRGAAPPRGRAGYSQRGGPGSARGVRGARGGAQQQRGRGVRGARGGRGGNVGGKRKADGYNQPDTKRRQTNNQNWGSQPIAQQPLQGGDHSGNYGYKSENQEFYQDTFGQQWK
B5: ERBB receptor feedback inhibitor 1 (ERRFI1) (protein, UniProt Q99JZ7 1-461)
chain: MSTAGVAAQDIRVPLKTGFLHNGQALGNMKSCWGSHSEFENNFLNIDPITMAYNLNSPAQEHLTTVGCAARSAPGSGHFFAECGPSPRSSLPPLVISPSESSGQREEDQVMCGFKKLSVNGVCTSTPPLTPIKSCPSPFPCAALCDRGSRPLPPLPISEDLCVDEADSEVELLTTSSDTDLLLEDSAPSDFKYDAPGRRSFRGCGQINYAYFDSPTVSVADLSCASDQNRVVPDPNPPPPQSHRRLRRSHSGPAGSFNKPAIRISSCTHRASPSSDEDKPEVPPRVPIPPRPAKPDYRRWSAEVTSNTYSDEDRPPKVPPREPLSRSNSRTPSPKSLPSYLNGVMPPTQSFAPDPKYVSSKALQRQSSEGSANKVPCILPIIENGKKVSSTHYYLLPERPPYLDKYEKYFKEAEETNPSTQIQPLPAACGMASATEKLASRMKIDMGSHGKRKHLSYVVSP

Results are given in words; binding and its absence hold for the method and conditions named. Binding seen in cells or lysates may run through a third protein. Here binding means that the protein was enriched with, or labelled near, the bait; the list need not be complete. Sequences can lack the tags named with a protein.

The target of the first experiment is T1, APEX2-ATOX1 fusion construct (3x Flag-APEX2-3x Myc-human ATOX1) (human). The experiment is described as follows: proximity labelling; as the immunoblot of streptavidin eluates, but elution with urea containing buffer without boiling; myoblasts, myocytes and myotubes; cells without biotin phenol as negative control.
“copper exporter ATP7A (from UniProt Q64430 1-1491)”: the binding entry is “binds”.

For the next experiment the target is unchanged. The experiment is described as follows: proximity labelling; APEX2-ATOX1 in stable C2C12 myoblasts, myocytes and myotubes, biotin-phenol labelling; independent streptavidin bead eluates probed by immunoblot; cells without biotin phenol as negative control.
On to “dual specificity mitogen-activated protein kinase kinase 2 (MEK2) (from UniProt Q63932 1-401) (enzyme)”, for which the binding entry is listed as “binds”.
Consider B1, for which the binding result is “binds”.

The next experiment has the same target. The experiment in a line: proximity labelling; APEX2-ATOX1 induced with doxycycline (2.5 ug/mL) in stable C2C12 myoblasts, myocytes and myotubes; 2.5 mM biotin-phenol, 0.75 mM H2O2 for 1 min; streptavidin agarose capture from RIPA lysates; label-free nanoLC-MS/MS, three replicates per state; cells without biotin phenol as negative control.
For B1, the binding entry is “binds”.
Same read-out and setting: the entry for B2 is “binds”; for B3 it is “binds”; for B4 it is “binds”.
On the same count and under the same terms, the entry for B5 is “binds”.

For another experiment the target is unchanged. Described as above. This is another data set of the same source.
Take FUBP1 (from UniProt Q91WJ8 1-651): the binding entry is listed as “binds”.
On the same count and under the same terms, the result for HNRNPAB (from UniProt Q99020 1-285) reads “binds”; that for SNX9 (from UniProt Q91VH2 1-595), “binds”.
With “dual specificity mitogen-activated protein kinase kinase 2 (MEK2) (from UniProt Q63932 1-401) (enzyme)”, the binding entry was “binds”.
